# According to the supplement of paper PMC7858590:
# “And” between values parts separate entries of the source, which are not always exact repeats. Equal values may be shown once. ± gives the standard deviation of the averaged measurements. Over roughly 3,800 compounds, “cell shape (eccentricity) Z-score vs DMSO control” has its median near 1.1; the lowest 2% begin near -4.7. The list shows a part of the results.
# System: human monocyte-derived macrophages (M0)
# Experiment: cell shape (eccentricity) Z-score vs DMSO control; higher = more elongated, M2-like morphology
# Details: 20 µM; 24 h; macrophage state: M0 (M-CSF)
row,SMILES,cell shape (Z-score)
1,N[C@@H](C(=O)O)C1=CCC=CC1,3.02
2,COc1ccc(C2(CNC(=O)c3ccc(NC(=O)c4ccco4)cc3)CCOCC2)cc1,5.64
3,C/C=C1\C(O[C@@H]2O[C@H](CO)[C@@H](O)[C@H](O)[C@H]2O)OC=C(C(=O)OC)C1CC(=O)OCC(O)c1ccc(O)c(O)c1 (stereo partly specified),0.603
4,O=c1cc(-c2ccc(O)cc2)oc2cc(O)ccc12,6.38
5,C[C@]12CCC3c4ccc(OC(=O)c5ccccc5)cc4CCC3C1CCC2=O (stereo partly specified),1.95
6,C[C@H](CS)C(=O)N1CCC[C@H]1C(=O)O,-0.0396
7,OC[C@H]1O[C@@H](OCCc2ccccc2)[C@H](O)[C@@H](O)[C@@H]1O,4.65
8,C/C=C(\C)C(=O)OC(C)(C)C1Cc2cc3ccc(=O)oc3cc2O1 (stereo unspecified),-0.504 ± 0.21
9,C[C@@]1(C(=O)Nc2ccc(F)nc2)CCCN1c1nc(Nc2cc(C3CC3)n[nH]2)c2cccn2n1,5.78
10,CC1CC[C@]2(C(=O)OC3OC(COC4OC(CO)C(O)C(O)C4O)C(O)C(O)C3O)CC[C@]3(C(=O)O)C(=CCC4[C@@]5(C)CC[C@H](OC6OC(C)C(O)C(O)C6O)C(C)(C)C5CC[C@]43C)C2C1C (stereo partly specified),2.48
11,OC1(c2ccc(Cl)cc2)CCN(Cc2c[nH]c3ccccc23)CC1,1.03
12,C=CC1C(=C)CCC2C1CCC1C(C)(C(=O)O)CCCC21C (stereo unspecified),1.19 ± 1.4
13,CC1Cc2ccccc2N1NC(=O)c1ccc(Cl)c(S(N)(=O)=O)c1 (stereo unspecified),0.275
14,CCN1C(=O)C=CC1=O,0.508
15,COc1cc(O)cc(OC)c1OC,0.967
16,COc1ccc([C@@H]2Sc3ccccc3N(CCN(C)C)C(=O)[C@@H]2OC(C)=O)cc1,1.41 and 1.58
17,C=C(COC(=O)C(C)C)C1Oc2cc(C(C)=O)ccc2C1OC(=O)C(C)C (stereo unspecified),1.56
18,COc1ccc(/C=C/C(=O)CC(=O)/C=C/c2cccc(O)c2OC)cc1O,0.215
19,COc1cc2nc(N3CCN(C(=O)C4CCCO4)CC3)nc(N)c2cc1OC (stereo unspecified),0.209
20,COc1cc2c(c3oc(-c4ccccc4)cc(=O)c13)C=CC(C)(C)O2,0.908
21,O=C1C[C@@H](c2ccc(O)cc2)Oc2cc(O)cc(O)c21,1.5
22,Cc1ncc([N+](=O)[O-])n1CCO,2.83
23,CC1CCN(CC[C@H]2CCCN2S(=O)(=O)c2cccc(O)c2)CC1,1.23
24,O=c1cc(-c2ccccc2)oc2cc(O)c(O)c(O)c12,3.42

row,SMILES,cell shape (Z-score)
1,COc1cc(C2c3cc(O)c(OC)cc3CC(CO)C2CO[C@@H]2O[C@H](CO)[C@@H](O)[C@H](O)[C@H]2O)ccc1O (stereo partly specified),2.04
2,CC(=O)c1c(O)cc(O[C@@H]2O[C@H](CO)[C@@H](O)[C@H](O)[C@H]2O)cc1O,0.518
3,COc1cc2c(cc1OC)Cc1cc(OC)c(OC)cc1Cc1cc(OC)c(OC)cc1C2,1.31
4,C=C(C(=O)O)C1CCC2(C)CCC(=O)C(C)=C2C1 (stereo unspecified),0.463
5,C[C@H]1O[C@@H](O[C@H]2CC[C@@]3(C)C(CC[C@]4(C)C3CC=C3C5CC(C)(C)CC[C@]5(C(=O)O)CC[C@]34C(=O)O)C2(C)C)[C@H](O)[C@@H](O)[C@@H]1O (stereo partly specified),0.659
6,CC1C(=O)C(=O)[C@@H]2O[C@@H]2C1=O (stereo partly specified),5.29
7,Oc1c(Cl)cc(Cl)c2cccnc12,1.98
8,C[C@@H]1O[C@@H](OC[C@H]2OC(Oc3c(-c4ccc(OCCO)c(OCCO)c4)oc4cc(OCCO)cc(O)c4c3=O)[C@H](O)[C@@H](O)[C@@H]2O)[C@H](O)[C@H](O)[C@H]1O (stereo partly specified),-2.65
9,COC1=CC(c2cc3ccccc3[nH]2)=N/C1=C\c1[nH]c(C)cc1C,4.32
10,CC(Cc1cccc(C(F)(F)F)c1)NCCOC(=O)c1ccccc1 (stereo unspecified),-2.44
11,COc1cc2ncnc(Nc3cccc(Br)c3)c2cc1OC,3.49
12,COc1ccc(Cl)cc1NC(=O)Nc1cc(C)nc2ccccc12,1.69
13,CN(C)CCC(c1ccc(Br)cc1)c1ccccn1 (stereo unspecified),2.08
14,O=C(O)CCNC(=O)c1ccccc1,2.44
15,Cc1cc(O)c(C=O)c2c1C(=O)Oc1c(C)c(O)c3c(c1O2)C(O)OC3=O (stereo unspecified),1.11
16,CNC(=O)C1OC(n2cnc3c(NCc4cccc(I)c4)nc(Cl)nc32)C(O)C1O (stereo unspecified),3.88
17,Cn1cc[nH]c1=S,1.13
18,Cc1cnc(C(=O)NCCc2ccc(S(=O)(=O)NC(=O)NC3CCCCC3)cc2)cn1,1.9
19,CC(=O)OC[C@H]1O[C@@H](Oc2c(-c3ccc(O)c(O)c3)oc3cc(O)cc(O)c3c2=O)[C@H](O)[C@@H](O)[C@@H]1O,2.8
20,CCC(=O)OCC(=O)[C@@]1(OC(=O)CC)[C@@H](C)CC2C3CCC4=CC(=O)C=C[C@]4(C)C3(F)[C@@H](O)C[C@@]21C (stereo partly specified),-1.64
21,CCOC(=O)[C@H]1O[C@@H]1C(=O)N[C@@H](CC(C)C)C(=O)NCCC(C)C,-2.63
22,C[C@H]1CC2C3CCC4=CC(=O)C=C[C@]4(C)[C@@]3(F)[C@@H](O)C[C@]2(C)[C@@]1(O)C(=O)COP(=O)(O)O (stereo partly specified),-3.46
23,CCCC(O)/C(=C/C1=C(C(=O)CC(CC(=O)O)OC(N)=O)C(=O)c2cccc(O)c2C1=O)CC(C(=O)O)[N+](C)(C)C (stereo unspecified),-1.12
24,Nc1ncnc2[nH]nc(Nc3ccc(F)cc3)c12,8.81

# Rewritten as tab-separated lines: 2 of the compounds above.
row	SMILES	cell shape (Z-score)
17	Cn1cc[nH]c1=S	1.13
18	Cc1cnc(C(=O)NCCc2ccc(S(=O)(=O)NC(=O)NC3CCCCC3)cc2)cn1	1.9

# (further entries)

row,SMILES,cell shape (Z-score)
1,O=C1c2ccc(Nc3ccc(F)cc3F)cc2CCc2ccc(OC[C@H](O)CO)cc21,-6.5
2,C=C(C(=O)O)C(CCCCC(C)O)C(=O)O (stereo unspecified),3.09
3,COc1cc(C)c2c(=O)cc(-c3ccccc3)oc2c1,1.41
4,O=C(Nc1ccccc1)NC1CC(C(=O)O)Nc2cc(Cl)cc(Cl)c21 (stereo unspecified),1.59
5,CC(C)NCC(O)COc1ccc(CC(N)=O)cc1 (stereo unspecified),0.881
6,Brc1cccc(Nc2ncnc3cc4[nH]cnc4cc23)c1,1.28
7,COc1ccc(-c2coc3cc(O)ccc3c2=O)c(OC)c1,3.35
8,NC(=O)[C@H]1CCCc2c1[nH]c1ccc(Cl)cc21,5.27
9,Sc1ncnc2[nH]ncc12,0.063
10,CCCCCCC(=O)OC1OC(CO)C(O)C2OCC(C(=O)O)COC12 (stereo unspecified),-0.258
11,CC(=O)[C@H]1CCC2C3CC=C4C[C@@H](OC(=O)CCC(=O)O)CC[C@]4(C)C3CC[C@@]21C (stereo partly specified),-1.65
12,CC(=O)Nc1ccc(S(=O)(=O)c2ccc(NC(C)=O)cc2)cc1,3.27
13,COC(=O)Nc1nc2cc(Sc3ccccc3)ccc2[nH]1,-2.59 ± 3.9
14,O=c1c(O)c(-c2cc(O)c(O)c(O)c2)oc2cc(O)cc(O)c12,3.98
15,C[C@H]1[C@H](C)CC[C@]2(C(=O)O)CC[C@]3(C(=O)O)C(=CCC4[C@@]5(C)CC[C@H](O[C@@H]6O[C@@H](C)[C@H](O)[C@@H](O)[C@H]6O)C(C)(C)C5CC[C@]43C)[C@H]12 (stereo partly specified),0.924 ± 0.21
16,N#Cc1ccccc1OCC(O)CNCCNC(=O)Nc1ccccc1 (stereo unspecified),-2.75
17,COc1cc2c(c(OC)c1)C(=O)OC(C)C2 (stereo unspecified),-2.38
18,CC(C)N1c2ccccc2C(c2ccc(F)cc2)C1/C=C/C(O)CC(O)CC(=O)O (stereo unspecified),2.93 ± 4.8
19,CN1CCN(C2=Nc3cc(Cl)ccc3Nc3ccccc32)CC1,2.44
20,CO/N=C1\CN(c2nc3c(cc2F)c(=O)c(C(=O)O)cn3C2CC2)CC1CN (stereo unspecified),0.169
21,O=C(O)CC(CCc1ccccc1)OC1OC(CO)C(O)C(O)C1O (stereo unspecified),1.75
22,CS(=O)(=O)c1ccc(-c2nc(-c3ccc(F)cc3)c(-c3ccncc3)[nH]2)cc1,1.46
23,C=C1CCCC(C)(C(=O)OC)C1CC/C(C)=C/CCC1=CC(=O)OC1 (stereo unspecified),6.46
24,C=CCc1ccccc1OCC(O)CNC(C)C (stereo unspecified),-0.655

# Reformatted: results already given.
row	SMILES	cell shape (Z-score)
11	CC(=O)[C@H]1CCC2C3CC=C4C[C@@H](OC(=O)CCC(=O)O)CC[C@]4(C)C3CC[C@@]21C (stereo partly specified)	-1.65
18	CC(C)N1c2ccccc2C(c2ccc(F)cc2)C1/C=C/C(O)CC(O)CC(=O)O (stereo unspecified)	2.93 ± 4.8
19	CN1CCN(C2=Nc3cc(Cl)ccc3Nc3ccccc32)CC1	2.44
24	C=CCc1ccccc1OCC(O)CNC(C)C (stereo unspecified)	-0.655

# Additional structures follow:

row,SMILES,cell shape (Z-score)
1,CC1CCCC[C@H]2C(=O)C=C[C@H](O)[C@@H]2CC(=O)O1 (stereo partly specified),0.141
2,O=C(O)Cc1cc2ccccc2nc1C(=O)O,-0.316
3,CCC(C)n1ncn(-c2ccc(N3CCN(c4ccc(OCC5COC(Cn6cncn6)(c6ccc(Cl)cc6Cl)O5)cc4)CC3)cc2)c1=O (stereo unspecified),-0.941
4,CN1CCN(CCc2ccc(Cl)c(Cl)c2)CC1,2.1
5,CC1(C)C=Cc2cc3ccc(=O)oc3cc2O1,2.39
6,CCCNC(=O)NS(=O)(=O)c1ccc(Cl)cc1,3.2
7,CCC(C)C(O)C(C)(O)/C=C/C1=CC2=C(Cl)C(=O)C(C)(O)C(O)C2CO1 (stereo unspecified),-2.31
8,C[C@H]1O[C@@H](O[C@H]2[C@@H](O)C[C@H](O[C@H]3[C@@H](O)C[C@H](O[C@H]4CC[C@]5(C)C6C[C@@H](O)[C@]7(C)[C@@H](C8=CC(=O)OC8)CC[C@]7(O)C6CC[C@@H]5C4)O[C@@H]3C)O[C@@H]2C)C[C@H](O)[C@@H]1O (stereo partly specified),-1.93
9,COc1cc(-c2coc3cc(OC)c(OC)c(OC)c3c2=O)cc(OC)c1OC,-0.253
10,NC1CCN(c2cccc(Cl)n2)CC1,-0.0172
11,CC(C)=CCC[C@]1(C)[C@@H](CC=C(C)C)CC2(CC=C(C)C)C(=O)C(CC=C(C)C)C(=O)[C@@]1(C(=O)C(C)C)C2=O (stereo partly specified),1.59
12,Oc1ccc2c(c1O)OCC1c3cc4c(cc3OC21)OCO4 (stereo unspecified),6.06
13,O=C(NCCCN1CCCCCC1)C(c1ccccc1)C1CCCCC1 (stereo unspecified),1.44
14,Fc1cc(-c2cccc3ncc(-c4cnn(C5CCNCC5)c4)nc23)cc(F)c1CN1CCOCC1,4.2
15,CC(C)CCOC(=O)c1ccc(N(C)C)cc1,0.629
16,COc1cc2c(cc1O)C(=O)CC1C(C)(C)C(=O)CCC21C (stereo unspecified),1.43
17,CCOC(=O)CSCCC1NC(C(=O)O)CS1 (stereo unspecified),-0.811
18,O[C@@H]1[C@@H](O)[C@H](OC/C=C/c2ccccc2)O[C@H](CO[C@@H]2OC[C@H](O)[C@H](O)[C@H]2O)[C@H]1O,1.13 ± 0.51
19,NS(=O)(=O)c1ccc(N2CCN(CC[C@@H]3OCCc4ccccc43)CC2)cc1,-0.418
20,CCCC[C@@H](C)/C=C(C)/C=C(\C)C(=O)NC1=C[C@@](O)(/C=C/C=C/C=C/C(=O)NC2C(=O)CCC2=O)[C@@H]2O[C@@H]2C1=O,0.108
21,O=C(O)C1C(=CCO)OC2CC(=O)N21 (stereo unspecified),0.00862
22,CC(C)n1cnc2c(NCCc3ccc(O)cc3)nc(-c3csc4ccccc34)nc21,7.21
23,O=C(NCCCCN1CCOCC1)c1cc2ccccc2o1,-0.102
24,COc1c2c(c(C)c3c1C(=O)OC3)OC1(C)CC(O)C3(O)C(C)(C)OC(=O)CCC3(C)C1C2 (stereo unspecified),1.19
